No constants are given. Whether binding was seen depends on the method and setting. Some entries that bind do so weakly or less than the wild type. Where a sequence is shown, tags or fusion partners need not be part of it.
Target: Vps60-HA (S. cerevisiae) (UniProt Q03390)
Experiment: rate-zonal density gradient centrifugation; membrane fraction of yeast solubilized in PBS with 0.5% Tween-20, 10–40% glycerol gradient, 100,000× g for 4 h at 4°C, fractions blotted with anti-HA and anti-Snf7; wildtype, VPS4-deleted and vps4 E233Q strains

binding: binds
B1: Vps60-HA (protein, UniProt Q03390 1-229)
chain: MNRIFGYGNKKSHDQLLQESNQSMNQAQQSLSNRISQLDTQIAQLNFQLQNIQKNLQRSNNKQPSLRKQALKILNKRKQLENMKDSLDSQSWSMTQAQLTNDNLQNTMITINALKQTNNAMKAQYGKINIDKLQDMQDEMLDLIEQGDELQEVLAMNNNSGELDDISDAELDAELDALAQEDFTLPTSENSLGNDMPSYLLGANAPPAFIDEEPNLDTEDKNKALESAQ
